# PubChem BioAssay AID488840 (Broad Institute, 2010)
# Chains of the proteins cited; added tags and fusions are not shown. Lines headed by an entry give the natural chain unless they say otherwise; changes in a name come on top.
# UniProt O75164: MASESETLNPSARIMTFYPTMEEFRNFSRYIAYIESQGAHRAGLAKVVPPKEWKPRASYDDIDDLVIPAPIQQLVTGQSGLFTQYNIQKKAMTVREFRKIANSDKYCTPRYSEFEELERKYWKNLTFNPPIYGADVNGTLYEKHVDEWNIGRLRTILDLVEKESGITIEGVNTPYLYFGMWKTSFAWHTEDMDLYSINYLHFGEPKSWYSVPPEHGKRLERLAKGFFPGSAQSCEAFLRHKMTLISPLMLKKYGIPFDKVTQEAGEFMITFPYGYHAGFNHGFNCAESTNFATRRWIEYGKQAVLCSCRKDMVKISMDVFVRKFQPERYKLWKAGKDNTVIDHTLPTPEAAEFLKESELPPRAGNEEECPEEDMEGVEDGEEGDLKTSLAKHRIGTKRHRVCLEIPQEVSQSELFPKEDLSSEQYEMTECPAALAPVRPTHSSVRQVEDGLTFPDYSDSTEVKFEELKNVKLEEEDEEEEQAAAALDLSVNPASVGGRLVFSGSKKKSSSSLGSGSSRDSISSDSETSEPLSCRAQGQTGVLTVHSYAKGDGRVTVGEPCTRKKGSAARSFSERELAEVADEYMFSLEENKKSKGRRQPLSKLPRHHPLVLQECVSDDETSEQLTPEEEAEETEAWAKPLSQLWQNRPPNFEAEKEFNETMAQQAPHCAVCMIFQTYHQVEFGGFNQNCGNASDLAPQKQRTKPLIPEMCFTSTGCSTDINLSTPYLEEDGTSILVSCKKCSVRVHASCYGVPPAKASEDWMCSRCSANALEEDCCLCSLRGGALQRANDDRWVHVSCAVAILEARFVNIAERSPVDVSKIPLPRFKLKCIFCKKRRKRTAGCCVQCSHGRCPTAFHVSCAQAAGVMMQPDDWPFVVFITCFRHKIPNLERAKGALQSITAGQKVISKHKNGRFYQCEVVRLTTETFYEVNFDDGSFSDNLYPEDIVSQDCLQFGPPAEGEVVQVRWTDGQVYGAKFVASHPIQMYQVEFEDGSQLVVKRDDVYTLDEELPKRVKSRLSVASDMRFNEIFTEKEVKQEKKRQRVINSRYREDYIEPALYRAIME
# Screen size: about 1,400 compounds; about 45 (3%) were called active. This list was built around the results that the source calls inconclusive (neither active nor inactive); the mix of calls is not that of the screen.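 How the source made its calls: active means half-maximal dose of signal decrease from fit no higher than ten times the top valid tested dose; inconclusive means fit invalid, or curve flat with 30 to 70% inhibition; inactive means the rest.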
# Target: Lysine-specific demethylase 4A (Homo sapiens) (UniProt O75164)
# Assay: inhibition of JMJD2A H3K9me3 demethylation – biochemical, DELFIA europium, cherry-picked samples, selectivity assay for GASC-1 inhibitor project, dose response (AID 488840);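 further: europium signal reports the dimethyl H3K9 product detected by antibody so inhibitors lower it; 0% = median of neutral control wells and -100% = median of positive control wells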
# Details: GST-JMJD2A(1-420) H3K9me3 demethylation; at 6 µM (top of the series)
row,Structure (SMILES),"activity change, negative = inhibition"
1,CCNC(=O)C/C(C)=N/NC(=O)C12CC3CC(CC(C3)C1)C2,inconclusive: -28%
2,COc1ccccc1/C=C1\SC(=S)N(CCC(=O)NNC(=O)c2ccccc2OC)C1=O,inactive: -0.634%
3,COC(=O)CCC(=O)N1CCOCCOCCN(C(=O)CCC(=O)OC)CCOCCOCC1,inconclusive: -14.6%
4,Cc1ccccc1NC(=O)c1c(F)c(F)c(F)c(F)c1F,inconclusive: -16.3%
